# Results from the supplement of paper PMC12067093, “Discovery and optimisation of a covalent ligand for TRIM25 and its application to targeted protein ubiquitination” (Chemical Science, 2025).
# By UniProt entry, the sequences of proteins in these tests, tags left out. Where a name states a change or a piece, a line headed by the entry shows the natural chain unless it says otherwise.
# UniProt P55899: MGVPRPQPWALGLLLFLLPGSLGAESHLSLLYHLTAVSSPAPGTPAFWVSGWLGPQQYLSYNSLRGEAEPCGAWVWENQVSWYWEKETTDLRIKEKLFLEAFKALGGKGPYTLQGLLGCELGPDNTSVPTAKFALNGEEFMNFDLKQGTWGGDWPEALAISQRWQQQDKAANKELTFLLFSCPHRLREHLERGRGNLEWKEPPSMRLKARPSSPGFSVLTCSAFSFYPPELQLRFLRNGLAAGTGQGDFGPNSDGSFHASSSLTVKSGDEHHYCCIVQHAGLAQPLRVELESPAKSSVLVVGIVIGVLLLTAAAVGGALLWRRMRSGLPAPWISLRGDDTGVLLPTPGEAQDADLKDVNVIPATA
# UniProt Q9UK73, whole entry, looked up: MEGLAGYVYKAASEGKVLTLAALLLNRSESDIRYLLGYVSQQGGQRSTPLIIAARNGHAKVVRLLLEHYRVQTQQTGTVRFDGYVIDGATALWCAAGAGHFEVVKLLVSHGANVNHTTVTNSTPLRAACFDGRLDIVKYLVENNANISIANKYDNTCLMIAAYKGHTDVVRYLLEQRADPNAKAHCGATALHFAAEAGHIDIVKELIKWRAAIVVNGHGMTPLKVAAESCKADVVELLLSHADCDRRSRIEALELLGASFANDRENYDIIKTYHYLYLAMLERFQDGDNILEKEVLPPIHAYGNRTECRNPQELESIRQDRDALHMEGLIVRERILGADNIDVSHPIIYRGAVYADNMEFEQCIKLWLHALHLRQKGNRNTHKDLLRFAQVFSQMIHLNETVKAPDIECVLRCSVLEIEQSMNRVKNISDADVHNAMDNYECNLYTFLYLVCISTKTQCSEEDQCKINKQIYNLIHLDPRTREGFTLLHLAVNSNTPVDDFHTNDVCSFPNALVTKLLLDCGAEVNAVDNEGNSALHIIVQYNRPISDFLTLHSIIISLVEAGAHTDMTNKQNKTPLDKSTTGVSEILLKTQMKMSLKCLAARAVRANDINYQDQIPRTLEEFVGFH
# UniProt Q9BZQ8: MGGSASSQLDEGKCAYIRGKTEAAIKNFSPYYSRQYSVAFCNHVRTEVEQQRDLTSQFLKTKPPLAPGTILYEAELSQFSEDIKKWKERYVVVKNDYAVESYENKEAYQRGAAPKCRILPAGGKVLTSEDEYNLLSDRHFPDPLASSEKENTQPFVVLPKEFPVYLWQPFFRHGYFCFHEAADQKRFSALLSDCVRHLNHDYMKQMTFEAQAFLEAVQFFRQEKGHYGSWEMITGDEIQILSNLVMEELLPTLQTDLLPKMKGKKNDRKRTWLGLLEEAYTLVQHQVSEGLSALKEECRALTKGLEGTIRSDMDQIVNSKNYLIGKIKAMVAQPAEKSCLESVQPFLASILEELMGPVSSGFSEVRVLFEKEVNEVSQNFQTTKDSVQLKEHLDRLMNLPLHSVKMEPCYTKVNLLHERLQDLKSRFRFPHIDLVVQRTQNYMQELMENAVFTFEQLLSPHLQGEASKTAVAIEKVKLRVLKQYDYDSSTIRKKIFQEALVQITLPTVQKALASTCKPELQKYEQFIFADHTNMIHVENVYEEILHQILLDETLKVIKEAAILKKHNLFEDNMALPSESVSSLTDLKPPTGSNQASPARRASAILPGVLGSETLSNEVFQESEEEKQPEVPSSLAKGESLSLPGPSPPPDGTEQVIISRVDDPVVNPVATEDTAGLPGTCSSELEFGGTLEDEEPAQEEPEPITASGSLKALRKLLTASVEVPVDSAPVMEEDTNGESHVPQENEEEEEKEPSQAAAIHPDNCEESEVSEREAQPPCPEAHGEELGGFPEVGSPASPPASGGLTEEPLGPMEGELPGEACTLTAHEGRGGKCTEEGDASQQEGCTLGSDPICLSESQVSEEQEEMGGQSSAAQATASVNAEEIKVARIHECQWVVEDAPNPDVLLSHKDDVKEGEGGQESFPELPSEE
# UniProt Q53R41: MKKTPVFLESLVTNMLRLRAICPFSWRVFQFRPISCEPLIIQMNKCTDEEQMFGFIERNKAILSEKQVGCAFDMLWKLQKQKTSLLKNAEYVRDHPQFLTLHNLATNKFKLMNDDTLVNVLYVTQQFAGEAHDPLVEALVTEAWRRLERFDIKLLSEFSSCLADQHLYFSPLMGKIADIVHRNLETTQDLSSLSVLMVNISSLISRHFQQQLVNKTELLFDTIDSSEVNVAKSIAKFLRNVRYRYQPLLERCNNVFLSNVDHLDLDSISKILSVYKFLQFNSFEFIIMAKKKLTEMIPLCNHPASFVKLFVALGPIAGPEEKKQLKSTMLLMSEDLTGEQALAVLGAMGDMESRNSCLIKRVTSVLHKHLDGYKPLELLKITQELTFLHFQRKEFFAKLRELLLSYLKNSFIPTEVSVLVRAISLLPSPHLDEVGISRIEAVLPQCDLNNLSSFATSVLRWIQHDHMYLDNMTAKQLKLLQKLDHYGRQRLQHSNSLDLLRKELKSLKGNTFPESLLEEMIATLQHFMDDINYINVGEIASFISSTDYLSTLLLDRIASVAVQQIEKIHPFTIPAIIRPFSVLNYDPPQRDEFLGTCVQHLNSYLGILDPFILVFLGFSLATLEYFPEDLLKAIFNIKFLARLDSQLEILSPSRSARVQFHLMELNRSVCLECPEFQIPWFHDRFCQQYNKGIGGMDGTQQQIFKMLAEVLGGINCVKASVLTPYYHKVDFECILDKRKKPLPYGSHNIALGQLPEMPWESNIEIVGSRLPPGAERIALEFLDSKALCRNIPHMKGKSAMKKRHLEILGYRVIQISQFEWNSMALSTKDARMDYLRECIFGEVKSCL
# UniProt P49327, whole entry, looked up: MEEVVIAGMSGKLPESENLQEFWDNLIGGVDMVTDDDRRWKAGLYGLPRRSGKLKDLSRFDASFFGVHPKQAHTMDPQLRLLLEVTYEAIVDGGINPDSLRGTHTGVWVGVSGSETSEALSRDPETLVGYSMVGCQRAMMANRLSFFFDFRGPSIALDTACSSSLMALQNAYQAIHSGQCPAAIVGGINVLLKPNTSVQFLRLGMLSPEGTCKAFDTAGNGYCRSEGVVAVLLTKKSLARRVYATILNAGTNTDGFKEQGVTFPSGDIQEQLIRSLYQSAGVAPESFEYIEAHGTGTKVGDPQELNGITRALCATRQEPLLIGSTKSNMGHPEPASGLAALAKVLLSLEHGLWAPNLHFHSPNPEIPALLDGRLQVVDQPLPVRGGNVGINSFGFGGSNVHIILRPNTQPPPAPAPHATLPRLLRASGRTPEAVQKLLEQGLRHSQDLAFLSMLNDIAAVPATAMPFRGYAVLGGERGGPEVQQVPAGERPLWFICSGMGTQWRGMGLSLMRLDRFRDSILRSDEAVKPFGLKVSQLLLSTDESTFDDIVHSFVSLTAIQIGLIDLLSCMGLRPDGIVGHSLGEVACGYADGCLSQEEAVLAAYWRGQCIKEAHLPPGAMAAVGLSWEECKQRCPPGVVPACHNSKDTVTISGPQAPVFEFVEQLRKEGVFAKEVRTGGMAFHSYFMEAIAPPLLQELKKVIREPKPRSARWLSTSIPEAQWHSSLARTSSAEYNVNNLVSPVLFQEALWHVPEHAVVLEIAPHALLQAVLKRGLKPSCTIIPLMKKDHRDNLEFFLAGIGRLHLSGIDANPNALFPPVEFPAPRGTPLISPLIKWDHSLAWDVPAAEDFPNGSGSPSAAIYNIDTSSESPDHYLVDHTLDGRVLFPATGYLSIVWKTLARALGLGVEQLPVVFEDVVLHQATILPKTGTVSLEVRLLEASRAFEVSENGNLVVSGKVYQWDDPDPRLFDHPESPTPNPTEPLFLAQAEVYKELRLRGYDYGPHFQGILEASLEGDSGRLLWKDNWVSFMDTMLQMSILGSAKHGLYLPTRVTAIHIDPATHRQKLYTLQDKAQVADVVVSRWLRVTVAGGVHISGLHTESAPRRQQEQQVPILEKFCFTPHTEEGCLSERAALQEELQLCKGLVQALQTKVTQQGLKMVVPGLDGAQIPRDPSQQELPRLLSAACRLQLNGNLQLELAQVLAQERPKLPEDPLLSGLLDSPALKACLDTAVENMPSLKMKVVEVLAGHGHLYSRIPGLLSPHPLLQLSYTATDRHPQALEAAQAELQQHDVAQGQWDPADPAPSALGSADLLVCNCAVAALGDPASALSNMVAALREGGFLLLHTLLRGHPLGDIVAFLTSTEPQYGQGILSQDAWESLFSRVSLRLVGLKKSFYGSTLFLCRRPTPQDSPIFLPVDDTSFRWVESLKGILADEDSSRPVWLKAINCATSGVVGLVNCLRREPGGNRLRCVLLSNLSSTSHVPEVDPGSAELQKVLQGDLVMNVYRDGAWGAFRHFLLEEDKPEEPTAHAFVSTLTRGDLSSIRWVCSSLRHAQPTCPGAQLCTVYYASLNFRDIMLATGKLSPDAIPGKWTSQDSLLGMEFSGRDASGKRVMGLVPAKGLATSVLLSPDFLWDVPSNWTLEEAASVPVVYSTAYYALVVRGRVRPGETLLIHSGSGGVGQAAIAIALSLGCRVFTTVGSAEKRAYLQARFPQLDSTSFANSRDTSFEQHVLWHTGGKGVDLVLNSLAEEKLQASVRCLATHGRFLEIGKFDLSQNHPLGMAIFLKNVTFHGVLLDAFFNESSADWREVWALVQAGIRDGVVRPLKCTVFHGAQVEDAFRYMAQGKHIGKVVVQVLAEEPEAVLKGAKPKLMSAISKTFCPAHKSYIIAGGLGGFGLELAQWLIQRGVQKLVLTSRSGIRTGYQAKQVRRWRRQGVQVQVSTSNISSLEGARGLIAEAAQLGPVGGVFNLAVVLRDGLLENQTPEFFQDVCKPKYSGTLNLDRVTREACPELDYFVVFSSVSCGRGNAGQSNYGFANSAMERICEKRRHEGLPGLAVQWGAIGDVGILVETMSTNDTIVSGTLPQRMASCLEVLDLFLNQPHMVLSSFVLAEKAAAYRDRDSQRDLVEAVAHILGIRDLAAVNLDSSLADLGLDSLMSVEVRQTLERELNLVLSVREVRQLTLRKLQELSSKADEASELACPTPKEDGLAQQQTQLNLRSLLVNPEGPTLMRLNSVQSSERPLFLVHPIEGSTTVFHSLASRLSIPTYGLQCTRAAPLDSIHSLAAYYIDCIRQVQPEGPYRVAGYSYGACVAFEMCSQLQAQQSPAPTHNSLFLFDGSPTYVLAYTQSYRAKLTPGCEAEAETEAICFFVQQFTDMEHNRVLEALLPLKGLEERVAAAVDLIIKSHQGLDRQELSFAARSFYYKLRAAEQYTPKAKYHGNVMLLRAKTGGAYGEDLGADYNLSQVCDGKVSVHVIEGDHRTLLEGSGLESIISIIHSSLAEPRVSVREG
# UniProt Q8N0U4: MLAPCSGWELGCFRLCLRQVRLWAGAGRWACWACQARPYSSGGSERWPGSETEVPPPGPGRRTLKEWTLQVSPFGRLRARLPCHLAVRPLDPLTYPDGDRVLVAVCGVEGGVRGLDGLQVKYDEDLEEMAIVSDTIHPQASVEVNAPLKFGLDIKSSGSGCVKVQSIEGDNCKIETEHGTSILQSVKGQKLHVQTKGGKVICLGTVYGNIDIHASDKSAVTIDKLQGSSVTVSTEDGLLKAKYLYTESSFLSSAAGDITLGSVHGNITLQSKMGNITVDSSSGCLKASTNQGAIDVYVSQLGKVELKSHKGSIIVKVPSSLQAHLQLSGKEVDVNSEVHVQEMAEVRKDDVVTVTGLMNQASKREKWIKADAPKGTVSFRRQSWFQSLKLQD
# UniProt Q9HAH7: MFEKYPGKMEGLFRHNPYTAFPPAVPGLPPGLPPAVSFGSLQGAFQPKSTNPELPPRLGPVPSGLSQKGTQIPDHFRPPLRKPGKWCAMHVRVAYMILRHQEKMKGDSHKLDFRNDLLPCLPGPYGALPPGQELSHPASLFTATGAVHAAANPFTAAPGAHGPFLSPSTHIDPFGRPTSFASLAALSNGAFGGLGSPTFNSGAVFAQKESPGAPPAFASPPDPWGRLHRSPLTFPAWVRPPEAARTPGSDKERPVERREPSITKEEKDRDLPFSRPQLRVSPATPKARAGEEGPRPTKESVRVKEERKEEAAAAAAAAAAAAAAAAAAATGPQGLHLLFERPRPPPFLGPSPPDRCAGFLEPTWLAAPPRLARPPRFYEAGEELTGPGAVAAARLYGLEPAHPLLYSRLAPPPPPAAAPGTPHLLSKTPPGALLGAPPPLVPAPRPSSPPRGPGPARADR
# UniProt Q8NEZ5: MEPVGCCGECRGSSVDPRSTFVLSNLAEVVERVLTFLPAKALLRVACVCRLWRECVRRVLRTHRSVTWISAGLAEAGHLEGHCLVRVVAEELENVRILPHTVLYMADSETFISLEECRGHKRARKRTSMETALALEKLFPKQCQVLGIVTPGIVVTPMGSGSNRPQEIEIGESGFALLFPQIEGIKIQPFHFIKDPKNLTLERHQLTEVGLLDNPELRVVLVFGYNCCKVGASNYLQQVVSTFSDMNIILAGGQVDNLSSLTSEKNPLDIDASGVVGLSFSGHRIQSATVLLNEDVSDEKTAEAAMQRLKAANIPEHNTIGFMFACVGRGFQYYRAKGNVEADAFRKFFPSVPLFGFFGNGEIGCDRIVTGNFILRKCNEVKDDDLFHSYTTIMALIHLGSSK
# The other results are listed elsewhere or left out.
# Compound: CC1Cc2ccccc2N1C(=O)C1CCCN(C1)C(=O)CCl (mixture of isomers) [TRIM25 ligand 11 (diastereomer mixture)]
# Test: probe-labelled cysteine peptide fold change vs DMSO (competition) (log2 fold change); higher = less target engagement (more negative = stronger competition)
# Conditions: THP-1, incubation time: 4 h
# 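Further: competitive chemoproteomic profiling in live THP-1 cells with an iodoacetamide desthiobiotin (IA-DTB) probe, comparing probe-labelled peptide intensities in compound-treated cells against DMSO-treated controls.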
Target,probe-labelled cysteine peptide fold change (10 µM),probe-labelled cysteine peptide fold change (50 µM)
FCGRT_P55899_182_ELTFLLFSCPHR (UniProt P55899),0.0117,0.0477
FEM1B_Q9UK73_244_ADVVELLLSHADCDRR (UniProt Q9UK73),-0.164,-0.345
FAM91A1_Q658Y4_653_NRVDLQHLCGYVTMLNASSQLADR (UniProt Q658Y4),-0.111,-0.0465
FAM129A_Q9BZQ8_177_HGYFCFHEAADQKR (UniProt Q9BZQ8),-0.15,-0.0236
FASTKD1_Q53R41_46_CTDEEQMFGFIER (UniProt Q53R41),-0.037,-0.134
FERMT3_Q86UX7_407_GCEVVPDVNVSGQK (UniProt Q86UX7),-0.0427,-0.0064
FASN_P49327_223_AFDTAGNGYCR (UniProt P49327),0.027,0.0842
FASTKD1_Q53R41_446_IEAVLPQCDLNNLSSFATSVLR (UniProt Q53R41),0.105,0.0567
FAM185A_Q8N0U4_284_MGNITVDSSSGCLK (UniProt Q8N0U4),0.131,0.101
FAM208B_Q5VWN6_1441_SNQISQCESEDLGITEK (UniProt Q5VWN6),0.0807,-0.0487
FBN2_P35556_2453_DIDECK (UniProt P35556),-0.0175,0.168
FBRS_Q9HAH7_87_WCAMHVR (UniProt Q9HAH7),-0.0949,0.148
FBXO22_Q8NEZ5_378_CNEVKDDDLFHSYTTIMALIHLGSSK (UniProt Q8NEZ5),0.0477,0.0518
FASN_P49327_1403_SFYGSTLFLCR (UniProt P49327),-0.00625,0.334

# Full records, quoted from the list. Values in the order: probe-labelled cysteine peptide fold change (10 µM)	probe-labelled cysteine peptide fold change (50 µM)
# FEM1B_Q9UK73_244_ADVVELLLSHADCDRR (UniProt Q9UK73) as listed: -0.164	-0.345
# FAM185A_Q8N0U4_284_MGNITVDSSSGCLK (UniProt Q8N0U4) as listed: 0.131	0.101
